By UniProt entry, the sequences of proteins in these tests, tags left out. Where a name states a change or a piece, a line headed by the entry shows the natural chain unless it says otherwise.
UniProt Q8BX22: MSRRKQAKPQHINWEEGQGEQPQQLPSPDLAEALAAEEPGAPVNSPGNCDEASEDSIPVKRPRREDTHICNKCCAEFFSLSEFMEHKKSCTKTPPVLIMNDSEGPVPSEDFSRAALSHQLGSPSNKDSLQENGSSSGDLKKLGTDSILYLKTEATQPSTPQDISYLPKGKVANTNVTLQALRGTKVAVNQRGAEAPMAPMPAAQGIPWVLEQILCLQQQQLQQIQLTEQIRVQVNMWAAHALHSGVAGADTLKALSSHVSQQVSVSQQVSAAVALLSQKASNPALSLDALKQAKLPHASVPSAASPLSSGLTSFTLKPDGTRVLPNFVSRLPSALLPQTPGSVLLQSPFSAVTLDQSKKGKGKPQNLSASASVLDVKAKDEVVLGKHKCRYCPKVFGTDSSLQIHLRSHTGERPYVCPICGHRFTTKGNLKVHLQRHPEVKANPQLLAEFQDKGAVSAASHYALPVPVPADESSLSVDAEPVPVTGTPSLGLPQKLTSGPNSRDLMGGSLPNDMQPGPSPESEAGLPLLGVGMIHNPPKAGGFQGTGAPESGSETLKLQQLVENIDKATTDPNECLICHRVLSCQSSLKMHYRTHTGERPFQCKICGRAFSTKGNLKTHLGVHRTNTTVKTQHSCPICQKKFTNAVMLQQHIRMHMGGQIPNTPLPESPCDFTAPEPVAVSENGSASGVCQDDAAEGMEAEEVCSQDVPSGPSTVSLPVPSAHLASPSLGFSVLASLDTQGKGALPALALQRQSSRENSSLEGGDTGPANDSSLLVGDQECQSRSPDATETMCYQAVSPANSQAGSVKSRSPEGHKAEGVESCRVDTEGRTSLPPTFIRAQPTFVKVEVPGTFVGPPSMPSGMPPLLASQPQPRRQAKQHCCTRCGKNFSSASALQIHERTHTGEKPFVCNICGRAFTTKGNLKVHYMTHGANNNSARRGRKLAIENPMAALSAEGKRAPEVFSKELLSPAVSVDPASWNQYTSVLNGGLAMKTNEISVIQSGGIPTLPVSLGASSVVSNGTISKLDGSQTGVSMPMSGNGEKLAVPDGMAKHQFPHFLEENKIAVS

According to doi:10.1101/2025.10.27.684836 (bioRxiv, 2025):

B1: SALL1 (endogenous) (protein, UniProt Q9ER74 1-1322)
chain: MSRRKQAKPQHFQSDPEVASLPRRDGDTEKGQPSRPTKSKDAHVCGRCCAEFFELSDLLLHKKSCTKNQLVLIVNESPASPAKTFPPGPSLNDPDDQMKDAANKADQEDCSDLSEPKGLDREESMEVEVPVATTTTTTTGGSGGSGGSTLSGVTNITTPSCHSGCSSGTSAITTSLPQLGDLTTLGNFSVINSNVIIENLQSTKVAVAQFSQEARCGGASGGKLLISTLMEQLLALQQQQIHQLQLIEQIRHQILLLASQSADLPAAPSIPSQGTLRTSANPLTTLSSHLSQQLAVAAGLAQSLASQSANISGVKQLPHVQLPQSSSGTSIVPPSGGTSPNMSIVTAAVPTPSSEKVASNAGASHVSSPAVSASSSPAFAISSLLSPESNPLLPQPTPANAVFPTPLPNIATTAEDLNSLSALAQQRKSKPPNVTAFEAKSTSDEAFFKHKCRFCAKVFGSDSALQIHLRSHTGERPFKCNICGNRFSTKGNLKVHFQRHKEKYPHIQMNPYPVPEHLDNVPTSTGIPYGMSIPSEKPVTSWLDTKPVLPTLTTSVGLPLPPTLPSLTPFIKTEEPAPIPISHSAASPQGSVKSDSGAPDLATRNPSGVPEEVEGSAVPPFGGKGEESNMASSAVPTAGNSTLNSPVADGGPGGTTFTNPLLPLMSEQFKAKFPFGGLLDSAQASETSKLQQLVENIDKKATDPNECIICHRVLSCQSALKMHYRTHTGERPFKCKICGRAFTTKGNLKTHYSVHRAMPPLRVQHSCPICQKKFTNAVVLQQHIRMHMGGQIPNTPVPDNYPESMESDTGSFDEKNFDDLDNFSDENMEECPEGSIPDTPKSADASQDSLSSSPLPLEMSSIAALENQMKMINAGLAEQLQASLKSVENGSMEGDVLTNDSSSVGGDMESQSAGSPAISESTSSMQALSPSNSTQEFHKSPGMEEKPQRVGPGEFANGLSPTPVNGGALDLTSSHAEKIIKEDSLGILFPFRDRGKFKNTACDICGKTFACQSALDIHYRSHTKERPFICTVCNRGFSTKGNLKQHMLTHQMRDLPSQLFEPSSNLGPNQNSAVIPANSLSSLIKTEVNGFVHVSPQDSKDAPTSHVPQGPLSSSATSPVLLPALPRRTPKQHYCNTCGKTFSSSSALQIHERTHTGEKPFACTICGRAFTTKGNLKVHMGTHMWNSTPARRGRRLSVDGPMTFLGGNPVKFPEMFQKDLAARSGSGDPSSFWNQYTAALSNGLAMKANEISVIQNGGIPPIPGSLGSGSSPISGLTGNVEKLGNSEPSAPLAGLEKMASSENGTNFRFTRFVEDSKEIVTS

Columns and labels:
Experiment in all cases: co-IP
[1] = molecular target: 3xFlag-tagged SALL4 QIDΔ (mouse) (UniProt Q8BX22)
[2] = molecular target: 3xFlag-monoGFP-tagged SALL4 minimal domain construct (205-237) fused to the SALL4 NLS (mouse)
[3] = molecular target: 3xFlag-tagged SALL4 C-terminal truncation removing residue 237 (mouse)

Row | Molecule | binding [1] | binding [2] | binding [3]
1 | HA-tagged SALL4 full-length (from UniProt Q8BX22 1-1067) | no binding |  | 
2 | B1 |  | binds | no binding

Results are given in words; binding and its absence hold for the method and conditions named. In cells and extracts the contact can be indirect. For part of these data: Binding calls can cover weak binding; strength is not graded here.
